Results: publication PMC3483155

Columns and labels:
Blom7-KH (Homo sapiens) = Blom7-KH (Homo sapiens) (UniProt Q7Z7F0); assay: EMSA; conditions: 1 mM Mg2+, 20 nM RNA, 0-50 nM protein; EMSA: PBS pH 7.5, 1 mM MgCl2, 1 mM DTT, 5% glycerol, 20 min at room temperature, gel at 4°C; recombinant protein; protein details: His6 (C-terminal as named, pET30A); label: 3' biotin
Blom7α wt (Homo sapiens) [1] = molecular target: Blom7α wt (Homo sapiens) (UniProt Q7Z7F0); assay: EMSA; conditions: 1 mM Mg2+, 20 nM RNA, 0-50 nM protein; EMSA: PBS pH 7.5, 1 mM MgCl2, 1 mM DTT, 5% glycerol, 20 min at room temperature, gel at 4°C; recombinant protein; protein details: His6 (C-terminal as named, pET30A); label: 3' biotin
Blom7α wt (Homo sapiens) [2] = molecular target: Blom7α wt (Homo sapiens) (UniProt Q7Z7F0); assay: competition with a labelled probe; conditions: unlabeled AK48scr (0-40 nM) versus 20 nM biotinylated AK48; EMSA: PBS pH 7.5, 1 mM MgCl2, 1 mM DTT, 5% glycerol, 20 min at room temperature, gel at 4°C; recombinant protein; protein details: His6 (C-terminal as named, pET30A); label: 3' biotin

Measured: binding result

CACGCACUCACCACGCACGCAUCCGCUCAC [AK48scr]
binds more weakly: all assays above

Construct, isoform or probe ends are uncertain for at least one entry. Weaker means in comparison with the reference protein, sequence or condition of that experiment.
